{
  "sequences": {"note": "Protein sequences, listed by entry. Tags and fused reporters are not part of them.", "UniProt P08670": "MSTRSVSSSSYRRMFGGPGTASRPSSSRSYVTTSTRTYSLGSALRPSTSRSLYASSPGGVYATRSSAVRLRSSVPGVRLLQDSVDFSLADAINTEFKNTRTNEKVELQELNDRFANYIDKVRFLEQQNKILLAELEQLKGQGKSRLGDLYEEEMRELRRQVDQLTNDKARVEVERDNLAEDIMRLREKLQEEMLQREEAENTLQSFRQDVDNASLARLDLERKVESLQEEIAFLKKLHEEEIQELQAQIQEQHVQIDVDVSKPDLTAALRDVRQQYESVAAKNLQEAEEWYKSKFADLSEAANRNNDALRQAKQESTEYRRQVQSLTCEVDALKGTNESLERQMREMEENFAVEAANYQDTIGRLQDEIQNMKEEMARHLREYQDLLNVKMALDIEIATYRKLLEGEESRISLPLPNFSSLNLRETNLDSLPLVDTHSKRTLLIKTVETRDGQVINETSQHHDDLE"},
  "source": "paper PMC11442847",
  "molecular_target": "MACF1 (human (endogenous in PEO-4, SKOV-3 or T1074)) (UniProt Q9UPN3)",
  "experiment": "cross-linking; in cellulo cross-linking with mass spectrometry (XL-MS): three million PEO-4, SKOV-3 or T1074 cells in 200 µL DPBS, 2 mM DSSO, 37 °C, 1 h; subcellular fractionation, FASP digestion (trypsin/Lys-C, chymotrypsin), nanoLC-MS/MS, XlinkX in Proteome Discoverer",
  "note": "Results are given in words; binding and its absence hold for the method and conditions named. Binding seen in cells or lysates may run through a third protein. Some entries that bind do so weakly or less than the wild type.",
  "data": [
    {"substance": "VIM (from UniProt P08670 1-466)", "values": [
      {"measurement": "binding", "value": "binds"}
    ]}
  ]
}
